In all, about 2,800 compounds went through this assay and fewer than 10 were called active. About 7% were inconclusive and are not listed. The call rests on the fitted dose curve; in most records, active means well fitted inhibition curve with a large enough effect; inconclusive means small, poorly fitted or top-dose-only effect; inactive means no such curve, though single readings can be large or run the other way. Some of the results follow.
target: Metallo-beta-lactamase type 2 (Klebsiella pneumoniae) (UniProt C7C422); assay: qHTS to identify inhibitors of the New Delhi Metallo-beta-lactamase (NDM): Nitrocefin screen against the machine-based learning selections.; further: % of control where 0% means no effect; details: NDM-1 enzyme, nitrocefin hydrolysis, absorbance 485 nm; activity, negative = inhibition: at the top concentration
Procedure, shortened: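 NDM-1 (2 nM final) in 50 mM HEPES pH 7.0, 1 uM Zn2SO4, 0.01% Tween20 was preincubated with compounds for >30 min. Nitrocefin (16.7 uM final) was read at 485 nm after 15 min, and meropenem (50 uM final) at 300 nm after 30 min.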

Sequences of proteins named here, by UniProt entry; tags and fusion partners are left off. A change or cut given only in a name is not applied to a line headed by its entry.
UniProt C7C422: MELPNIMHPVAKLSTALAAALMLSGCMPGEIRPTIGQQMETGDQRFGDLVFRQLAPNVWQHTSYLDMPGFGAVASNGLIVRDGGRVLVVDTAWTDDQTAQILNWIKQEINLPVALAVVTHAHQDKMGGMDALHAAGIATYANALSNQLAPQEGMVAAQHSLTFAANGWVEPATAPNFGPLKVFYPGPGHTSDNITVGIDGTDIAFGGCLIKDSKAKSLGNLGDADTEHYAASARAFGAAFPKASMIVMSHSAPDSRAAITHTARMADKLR

activity, negative = inhibition, inactive:
CN(Cc1ccccc1)C(=O)[C@@H]1Cc2nc[nH]c2CN1 -2.98% [at 76.7 µM], Cc1nc2c(c(-c3ccc(O)cc3)n1)CN(C(=O)C1CC1)CCC2 -5.66% [at 57.5 µM], O[C@@H]1C[C@@H](c2nc(-c3cnccn3)no2)N(Cc2ccc(F)cc2)C1 -2.44% [at 57.5 µM], O=C(NCc1cc2n(n1)CCN(C1CCCCC1)C2)c1cnn2ccccc12 -7.31%, CCN(C)S(=O)(=O)NCC1CCN(c2cnn(C)c(=O)c2)C1 (stereo unspecified) -0.157%, COC(=O)c1cccc(C(=O)N[C@H]2CO[C@H]3[C@@H]2OC[C@H]3OC(=O)Nc2cccc(C(F)(F)F)c2)c1 4.86%, Cc1n[nH]c(C)c1CN1C[C@@H](CO)[C@H](NC(=O)c2ccccc2)C1 -2.85%, CC(=O)N1CCC(N2C[C@@H]3OCC(=O)N[C@@H]3C2)CC1 -2.19% [at 76.7 µM], Cc1ccccc1-c1cnc2[nH]cc(CC(=O)Nc3cccnc3)c2c1 -2.14% [at 57.5 µM], COC(=O)[C@H](NC(=O)[C@@H]1C[C@@H](NC(=O)c2ccncc2)CCN1S(=O)(=O)c1ccc(OC)cc1)C(C)C -3.06%, O=C(NCC1CCOCC1)c1cnc2n[nH]c(-c3ccccc3)c2n1 6.45% [at 57.5 µM], c1cncc(-c2ccnc(NCCCn3nccc3C3CC3)n2)c1 0.0017%, CC(=O)N1CCN(C(=O)C2CCNCC2)C[C@@H]1C(=O)N[C@@H](CC1CCCCC1)C(N)=O -6.76%, COc1cc(C)c2c(c1C)C[C@H](C(C)C(=O)N1CCSCC1)CC2 (stereo partly specified) -5.07% [at 57.5 µM], CC1(c2ccccc2)CCCN(C(=O)c2cc(-c3ccncc3)n[nH]2)C1 (stereo unspecified) -5.28%, CC1(CNc2ccccc2)COc2ccc(C(=O)NCCc3ccccn3)cc2N1 (stereo unspecified) 8.93% [at 57.5 µM], COc1ccc(NC(=O)c2nc(C(O)c3cccc(O)c3)oc2C)cn1 (stereo unspecified) -8% [at 57.5 µM], CCN(Cc1cnn(CC)c1)C(=O)C1COc2ccccc2C1 (stereo unspecified) 11.9%, COc1ccc(C(=O)N[C@H]2CO[C@H]3[C@@H]2OC[C@@H]3n2nnnc2-c2ccc3c(c2)OCO3)cc1 4.63%, O=C(NCCc1csc(-c2ncccn2)n1)C1NCCc2[nH]cnc21 (stereo unspecified) -5.45%, CC(C)c1nc(C2Cc3ccccc3N2C(=O)NCc2ccco2)no1 (stereo unspecified) -0.216%, Cc1noc2c(NC3CCC(O)CC3)cc(-c3ccc(F)cc3)nc12 (stereo unspecified) -3.78% [at 57.5 µM], CC(=O)Nc1ccc(CN2CCC3(CC2)CN[S+](=O)([O-])c2ccccc2N3)cc1 -0.0615%, COc1ccc(CNC(=O)C[C@@H]2O[C@H](CNCc3cccc(Cl)c3)[C@@H](O)[C@H]2O)cc1 -6.58% [at 57.5 µM], C[C@@H](NC(=O)Nc1ccccc1)c1onc(-c2ccc(Cl)cc2)c1C(=O)O -9% [at 57.5 µM], O=C(c1ccccc1OCC1CCCN(C(=O)c2n[nH]c3ccccc23)C1)N1CCOCC1 (stereo unspecified) -10.2%, C[C@@]1(O)CCN(C(=O)c2cc(C(F)(F)F)ccc2Cl)C[C@@H]1O -0.333%, CN(Cc1ccccc1)Cc1cc(C(=O)N(C)Cc2ccsc2)no1 0.722%, COC[C@H]1CCCN1Cc1nc(C2(O)CCN(C)CC2)cs1 -1.63% [at 57.5 µM], c1ccc(CCN2CCNc3cc(Nc4ccc(N5CCOCC5)cc4)ncc3C2)cc1 6.99% [at 57.5 µM], COc1ccc(F)c(CN2CCCC(O)(CN(C)Cc3cc(C)on3)C2=O)c1 (stereo unspecified) -7.5%, Cc1cc(C)n(-c2ccc(NC(=O)C3CCN(Cc4nnc(C)o4)CC3)cc2)n1 -1.31%, COc1ccc(C(=O)N2CCCC(c3nccn3CC3CCC3)C2)c(OC)n1 (stereo unspecified) -6.83%, CC(C)NC(=O)CN1CCN(c2nccc(N3CCC(O)CC3)n2)CC1 -11%, CC(C)CN=C1S[C@H]2[C@H]([C@@H](O)[C@H](O)C[C@@H]2C(N)=O)N1Cc1ccc(F)cc1 0.0925% [at 57.5 µM], CC(=O)NC(CO)C(=O)N1CCC(O)(c2ccc(C)cn2)CC1 (stereo unspecified) -8.69%, Cc1ccc(N2CCN(C(=O)C3CCCN(c4cnc5nccnc5c4)C3)CC2)cc1 (stereo unspecified) 12.1%, Cc1ccc(C2(O)CCN(C(=O)c3cccc(-c4ncc[nH]4)c3)CC2)nc1 5.53%, Cc1cnccc1N1CCCN(C(=O)c2cccc(C3CCCNC3)c2)CC1 (stereo unspecified) -5.47%, Cc1ccccc1Oc1ncccc1CNC(=O)CCn1cnnc1 7.19%, Cc1cc(CNC(=O)c2cc(-c3ccco3)nc3c(Cl)cccc23)no1 -8.97%, O=C(O)C1(Oc2ccc3ccccc3c2)CCN(Cc2ccsc2)CC1 0.586%, Cc1nc2cc(N3CCCC(C(=O)NCCN4CCCCCC4)C3)cnc2nc1C (stereo unspecified) -6%, COC(=O)CCNC(=O)C1c2ccccc2C(=O)N(Cc2ccco2)C12CCCCC2 (stereo unspecified) -0.629%, CCCN[C@H]1C[C@@H](Cc2cc(COc3ccccc3)on2)C1(C)C -0.0387% [at 57.5 µM], O=C(CC[C@@H]1CNC(=O)[C@@H]2C[C@H](NC(=O)Nc3cccc(Cl)c3)CN12)NCc1cccnc1 -15.3%, COCc1cc(C[C@@H]2C[C@H](NC3CCN(C(C)=O)CC3)C2(C)C)no1 3.74% [at 57.5 µM], CC(C)C[C@@H](NC(=O)C1=C[C@@H](NC(=O)CC(C)(C)C)[C@@H](O)[C@H](O)C1)C(N)=O -0.399% [at 57.5 µM], Cc1nc(N2CCCCC2)ncc1C(=O)NC1CCOC2(CCOCC2)C1 (stereo unspecified) -10.2%, COc1ccc2[nH]c(C[C@@H]3C[C@@H](C(C)C)[C@H](CNCc4ccccc4O)C=C3C)nc2n1 0.657% [at 57.5 µM], C#CCNC(=O)[C@H]1O[C@H](CCN2CCOCC2)CC[C@@H]1O -0.0814% [at 57.5 µM], O=C(NC[C@H]1OC[C@@H](N(Cc2ccccc2F)Cc2ccccc2F)[C@@H]1O)c1ccccc1 6.97%, O=C(Cc1c[nH]c2ncc(-c3cccnc3)cc12)Nc1ccc(C(F)(F)F)cc1 6.66% [at 57.5 µM], CNC(=O)[C@@H]1C[C@H](n2cc(CNC(=O)Nc3ccc(C)c(Cl)c3)nn2)CN1 -11.5%, CN1C[C@H](C(=O)Nc2ccccc2)C[C@H]1c1cccc(C(F)(F)F)c1 -10.2% [at 57.5 µM], COc1ccc(C(=O)N[C@@H]2CN(C(=O)Nc3ccc(OC(F)(F)F)cc3)CCC[C@H]2O)cc1 0.345%, CS(=O)(=O)N1CCCCCNC(=O)CC1c1ccccc1 (stereo unspecified) 0.042%, C[C@]1(O)CCN(C(=O)c2ccc3c(c2)CCCC3)C[C@@H]1O -8.47%, Cn1nc(C2CCN(C(=O)c3nccc4ccccc34)CC2)c2c1CCOC2 0.202%, COCCNC(=O)CC[C@]12CC[C@](C)(O)C[C@H]1C(C)(C)C[C@@H]2NC(=O)CC(C)(C)C -2.33% [at 57.5 µM], COC(=O)CO[C@@H]1CO[C@H]2[C@@H]1OC[C@@H]2NC(=O)Nc1cccc(C(F)(F)F)c1 -2.32% [at 57.5 µM]
